PubChem BioAssay AID493014 (National Center for Advancing Translational Sciences (NCATS), 2011)
Hit rate of the full screen: of about 340,000 compounds, about 170 (0.05%) were called active. Inconclusive results, whose numbers are uncertain, are shown with a selection of clear calls. Calls come from the whole dose curve; as a rule, active = well fitted inhibition curve with a large enough effect in the signal ratio, with a control signal flat (not every such curve was filed as active); inconclusive = small, poorly fitted or top-dose-only effect, or effect the other way, or a change in a side signal; inactive = flat fitted curve, though single readings scatter; the % refers to the signal ratio. Where the call is inconclusive, the potency comes from a doubtful curve fit.

Test: qHTS Assay to Find Inhibitors of Chronic Active B-Cell Receptor Signaling;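 for activity change, negative = inhibition: plate controls were basal doxycycline-induced cells for no effect and cells given 10 µM MG132 for full effect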
Details: ABC-DLBCL IkBa-CBG/CBR reporter, luminescence ratio (green luciferase fused to IkBa over red control in TMD8 lymphoma cells), 4 h; activity change, negative = inhibition: at 46.1 µM (top of the series) unless noted
Summary of the method: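 Doxycycline induced both beetle luciferases in TMD8 lymphoma cells; IKK-driven degradation limits the IkappaBalpha-fused green signal, while red luminescence normalises for cell number and nonspecific effects. Compounds tested up to 46 uM, 4 hrs.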
Potency is the fitted concentration of half-maximal effect.

Row | Compound | activity change, negative = inhibition | Potency
1 | COc1cccc(OCc2cc(C(=O)N(Cc3ccccc3)CC3CC3)no2)c1 | inconclusive: 9.54% | –
2 | CC1(C)Cc2c(sc3nc(SCC(=O)NCc4ccco4)n(-c4ccccc4)c(=O)c23)CS1 | inactive: 3.01% | –
3 | Cc1cc(C)c(S(=O)(=O)NCCn2c(C)cc3ccccc32)c(C)c1 | inactive: 12.9% | –
4 | O=C(Nc1ccccc1-c1ccccc1)C(=O)Nc1ccccc1-c1ccccc1 | inconclusive: 3.78% | –
5 | FC(F)(F)c1nc2cc3nc4ccccc4[nH]c3cc2n1 | – | inconclusive: 20 µM [falling, single point]
6 | CC1CN(c2nc3ccccc3nc2SCC(=O)Nc2ccc(F)cc2)CC(C)O1 (stereo not drawn) | – | inconclusive: 15.8 µM [falling, partial curve, poor fit]
7 | O=C(NCCc1ccccc1)c1ccc(-c2ccccc2C(F)(F)F)o1 | inactive: -5.69% | –
8 | Cc1ccc(C)c(S(=O)(=O)N2CCN(C(=O)/C=C/c3ccco3)CC2)c1 | inactive: -0.704% | –
9 | CN(C)C1=NCCN1CCC1CCCC1 | inactive: 1.15% | –
10 | NS(=O)(=O)c1ccc(NC(=O)COC(=O)c2cc3ccccc3oc2=O)cc1 | – | inconclusive: 10 µM [rising, partial curve, poor fit]
11 | CC(=O)N/C(=C/c1ccccc1)C(=O)NC(Cc1ccccc1)C(=O)O (stereo not drawn) | inconclusive: -0.531% | –
12 | N#Cc1ccc(-c2ccccc2)nc1SCC(=O)c1cccc(Cl)c1 | inactive: -7.34% | –
13 | O=C(NCc1cccnc1)/C(=C/c1ccc(-c2ccc(Cl)cc2)o1)S(=O)(=O)c1ccccc1 | – | inconclusive: 4.47 µM [falling, partial curve, poor fit]
14 | O=C1NC2=C(C(=O)c3ccccc32)C(c2ccccc2)N1 (stereo not drawn) | inconclusive: 3.11% | –
15 | Cc1c(-c2cccc(NC(=O)c3cccs3)c2)nc2ncccn12 | – | inconclusive: 0.291 µM [falling, full curve, poor fit]
16 | CCC1CCCCN1CCCNC(=O)C(C)n1nc(C)c2sc3ccccc3c2c1=O (stereo not drawn) | inconclusive: -2.64% | –
17 | CNC(=O)c1c(NC(=O)c2ccc3ncsc3c2)sc(C)c1C | – | inconclusive: 4.11 µM [falling, single point]
18 | C=CC[n+]1c(-c2ccc(Cl)cc2Cl)csc1Nc1ccc(NC(C)=O)cc1 | inconclusive: -1.49% | –
19 | CCCC(=O)Nc1cccc(NC(=S)NC(=O)C(C)Oc2ccc(Cl)cc2Cl)c1 (stereo not drawn) | inconclusive: -24.5% | –
20 | Nc1ccc(C(=O)Nc2ccccc2C(=O)O)cc1 | – | inconclusive: 0.517 µM [falling, partial curve, poor fit]
21 | Cn1c(=O)c2c(nc(NCCOc3ccc(F)cc3)n2C)n(C)c1=O | inactive: 17.6% | –
22 | CO/N=C(/CNC(=O)c1ccccc1Cl)c1ccc(Cl)cc1 | – | inconclusive: 5.01 µM [falling, full curve]
23 | Cc1cc2cc(CNC(=S)NC3CCCCC3)ccc2n1C | inactive: -12.4% | –
24 | N#CC1(Cc2ccc(Cl)cc2)c2ccccc2C=CN1C(=O)c1ccccc1 (stereo not drawn) | inconclusive: 29% | –
25 | COc1cccc(/C=N/Nc2ccccc2C(=O)O)c1O | inconclusive: 364% | –
26 | CC(OC(=O)CSc1ccc([N+](=O)[O-])cc1)C(=O)NCc1ccccc1 (stereo not drawn) | inconclusive: -16.1% | –

Filtered by structure, those above containing fluorine.
Row | Compound | activity change, negative = inhibition | Potency
5 | FC(F)(F)c1nc2cc3nc4ccccc4[nH]c3cc2n1 | – | inconclusive: 20 µM [falling, single point]
6 | CC1CN(c2nc3ccccc3nc2SCC(=O)Nc2ccc(F)cc2)CC(C)O1 (stereo not drawn) | – | inconclusive: 15.8 µM [falling, partial curve, poor fit]
7 | O=C(NCCc1ccccc1)c1ccc(-c2ccccc2C(F)(F)F)o1 | inactive: -5.69% | –
21 | Cn1c(=O)c2c(nc(NCCOc3ccc(F)cc3)n2C)n(C)c1=O | inactive: 17.6% | –

Following part

Row | Compound | activity change, negative = inhibition | Potency
27 | CCC(=O)Nc1c(C(=O)Nc2ccc3c(c2)OCCO3)oc2ccccc12 | inconclusive: 3.9% | –
28 | CC1=C(C(=O)OC2CCCCC2)C(c2ccc(O)cc2)NC(=O)N1 (stereo not drawn) | inactive: 0.436% | –
29 | Cc1onc(-c2c(Cl)cccc2Cl)c1C(=O)Nc1ccc(N2CCOCC2)cc1 | inactive: -9.85% | –
30 | Cc1cnc(C(=O)OCC(=O)c2cccc3ccccc23)cn1 | inconclusive: 22.8% | –
31 | CCC[C@@H](CN[C@@H](CNC)C(C)C)NCCCCc1ccccc1 | – | inconclusive: 35.5 µM [falling, single point]
32 | Cc1cccc(NC(=O)CSc2nc3nc4c(cc3c(=O)n2-c2ccccc2)CCCC4)c1 | – | inconclusive: 23.1 µM [rising, partial curve, poor fit]
33 | CC(C)C(NC(=O)CSCc1ccc([N+](=O)[O-])cc1)C(C)C | inconclusive: -1.24% | –
34 | COC(=O)[C@H](CC(C)C)NC(=O)Nc1ccccc1F | inconclusive: 1.17% | –
35 | O=C(CCCn1ncn2c(cc3occc32)c1=O)NCc1ccccc1F | inconclusive: -17.1% | –
36 | O=C(C[C@@H]1C/C=C/CC[C@H](Cc2ccc(F)cc2)C(=O)OC[C@@H](Cc2ccccc2)NC1=O)N[C@H](CO)Cc1ccccc1 | inconclusive: 5.68% | –
37 | C[C@@H](C(=O)NC1CCCC1)N1C(=O)N2CCc3c([nH]c4ccccc34)[C@@]2(C)C1=O | inactive: -25.3% | –
38 | COCCS(=O)(=O)N(Cc1ccc(Br)cc1)[C@@H](C)C(=O)OC | inactive: 0.1% | –
39 | Cc1ccnc(NC(=O)Nc2cccc(F)c2)c1 | – | inconclusive: 4.61 µM [falling, full curve]
40 | CCN1CCN(Cc2cc(=O)oc3ccc(Cl)cc23)CC1 | inconclusive: 0.247% | –
41 | FC(F)(F)c1nc2ccccc2nc1N/N=C/c1ccc(Cl)cc1 | – | inconclusive: 0.398 µM [rising, full curve]
42 | COC(=O)c1ccc(NC(=S)NCCc2ccccc2)cc1 | – | inconclusive: 0.517 µM [falling, full curve]
43 | CCS(=O)(=O)N1CCN(CC2CC3C=CC2C3)CC1 (stereo not drawn) | inactive: 10.4% | –
44 | c1ccc(-c2nc(NCc3cccnc3)c3oc4ccccc4c3n2)cc1 | inconclusive: 0.121% | –
45 | CN(C)c1nc(NCc2ccccc2)nc(N/N=C/c2cccc(Br)c2)n1 | inconclusive: 11.5% | –
46 | CC(=O)Nc1ccc(N2CCC(C)CC2)c([N+](=O)[O-])c1 | inconclusive: 6.39% | –
47 | O=C(COc1ccc(Cl)cc1Cl)Nc1c(-c2cccs2)nc2ccccn12 | inconclusive: 9.01% | –
48 | O=C(COc1ccccc1Cl)Nc1cc(NC(=O)COc2ccccc2Cl)cc(C(=O)O)c1 | inconclusive: 5.02% | –
49 | COc1ccc(-c2nc(SC)n(C)c(=O)c2C#N)cc1OC | inactive: 5.84% | –
50 | CCOc1cc(C(=O)OC(C)C(=O)Nc2ncc(Cl)cc2Cl)ccc1OCC(=O)N1CCOCC1 (stereo not drawn) | inconclusive: -4.58% | –
51 | C/C(=N\Nc1nc(C)c(C)s1)c1ccc([N+](=O)[O-])cc1 | inconclusive: 1.5% | –
52 | O=Nc1onc(-c2ccc([N+](=O)[O-])cc2)c1NO | – | inconclusive: 35.5 µM [falling, single point]

Row | Compound | activity change, negative = inhibition | Potency
53 | CS(=O)(=O)c1ccc(Cl)c(NC(=O)CSc2n[nH]c(-c3cccs3)n2)c1 | inconclusive: 9.03% | –
54 | CCN(CC(=O)Nc1ccc(NC(C)=O)cc1)C(=O)/C=C/c1cn(-c2ccccc2)nc1-c1ccc(F)cc1 | inactive: 0.585% | –
55 | O=c1c2ccccc2ccc2ccccc12 | inconclusive: 6.72% | –
56 | Cc1noc(C)c1COc1ccc(C(=O)OCC(=O)Nc2ccc3c(c2)OCO3)cc1 | inconclusive: -1.28% | –
57 | C=CCn1c(N)c(C(=O)OC(C)CC)c2nc3ccccc3nc21 (stereo not drawn) | inconclusive: -0.569% | –
58 | CCOc1cc(N2CCOCC2)c(OCC)cc1NC(=O)C(C)Oc1ccccc1 (stereo not drawn) | inconclusive: 2.39% | –
59 | C=C(C)C(=O)N1CC2(CC(c3cccc(NC(=O)/C(C)=C\C)c3)=NO2)C[C@H]1C(N)=O (stereo partly drawn) | – | inconclusive: 20 µM [falling, partial curve, poor fit]
60 | Cc1ccc(C(=O)N/C(=C\c2ccccc2)C(=O)OCc2ccccc2)cc1 | inconclusive: 2.27% | –
61 | O=C(N/N=C\c1ccc(Sc2ccccn2)o1)c1cccc(Br)c1 | – | inconclusive: 35.5 µM [falling, single point]
62 | COc1ccc(/C=N\NC(=O)c2ccccc2[N+](=O)[O-])cc1COc1c(F)c(F)c(F)c(F)c1F | – | inconclusive: 12.6 µM [falling, partial curve, poor fit]
63 | C/C(=N\NC(=O)c1cccc2ccccc12)c1cccnc1 | – | inconclusive: 11.2 µM [falling, single point]
64 | O=C(COc1ccccc1Cl)NC(=S)Nc1cccc(NC(=O)c2ccccc2Cl)c1 | – | inconclusive: 7.94 µM [falling, partial curve]
65 | O=C(Oc1ccccc1C(=S)N1CCOCC1)c1cccc([N+](=O)[O-])c1 | inactive: -6.38% | –
66 | CCN(CC)c1ccc(/C=N/NC(=O)c2ccccn2)cc1 | – | inconclusive: 35.5 µM [rising, single point]
67 | Cn1sc(=O)c2cc(S(=O)(=O)NC3CC3)ccc21 | inconclusive: 19.7% | –
68 | Cc1ccc(-n2c(SCC(=O)Nc3cccc(S(N)(=O)=O)c3)nc3ccccc32)cc1 | inconclusive: -6.48% | –
69 | COc1ccc(F)c(C2C(C#N)=C(N)Oc3n[nH]c(C(C)(C)C)c32)c1 (stereo not drawn) | – | inconclusive: 23.1 µM [falling, single point]
70 | COc1ccc(NC(=O)COc2ccc(C)c(C)c2)cc1S(=O)(=O)N1CCCCC1 | inactive: 3.19% | –
71 | c1ccc(-c2nnc(-c3ccccc3)nn2)cc1 | inconclusive: 0.0783% | –
72 | Clc1c(-c2nnc3n2CCCCC3)sc2ccccc12 | – | inconclusive: 20 µM [falling, single point]
73 | Cc1nnsc1-c1c(C(=O)Oc2ccccc2)c(C)nn1-c1ccccc1 | inconclusive: 12.4% | –
74 | O=C(CCCSc1nc(-c2ccco2)cc(C(F)(F)F)n1)NCC1CCCO1 (stereo not drawn) | inactive: -3.24% | –
75 | CCN(C(=O)CSc1nncn1-c1ccccc1)C1CCS(=O)(=O)C1 (stereo not drawn) | inconclusive: -0.74% | –
76 | COc1ccc(OC)c(/C(C)=N/Nc2ccc(C(=O)O)cc2)c1 | – | inconclusive: 5.62 µM [rising, single point]
77 | Oc1c(Br)cc(Br)c(/C=N/n2c(-c3ccccc3)n[nH]c2=S)c1Br | inconclusive: 0.671% | –
78 | O=C(CN1CCN(S(=O)(=O)c2ccc(Cl)cc2)CC1)Nc1ccc2c(c1)OCO2 | inconclusive: -7.65% | –
